Laboratory results: PubChem BioAssay AID1439 (NMMLSC, 2008)
Out of some 220,000 compounds screened, about 770 (0.35%) were called active. The inconclusive results got no clear call from the source; some entries with a clear call stand among them for comparison. Cut-off read from the data, not from the text of the source: active = binding response below about 49% or above about 150%; inconclusive = no clear call, values can overlap the other calls; inactive = in between.

Chains of the proteins cited; added tags and fusions are not shown.
UniProt P09471, whole entry, looked up: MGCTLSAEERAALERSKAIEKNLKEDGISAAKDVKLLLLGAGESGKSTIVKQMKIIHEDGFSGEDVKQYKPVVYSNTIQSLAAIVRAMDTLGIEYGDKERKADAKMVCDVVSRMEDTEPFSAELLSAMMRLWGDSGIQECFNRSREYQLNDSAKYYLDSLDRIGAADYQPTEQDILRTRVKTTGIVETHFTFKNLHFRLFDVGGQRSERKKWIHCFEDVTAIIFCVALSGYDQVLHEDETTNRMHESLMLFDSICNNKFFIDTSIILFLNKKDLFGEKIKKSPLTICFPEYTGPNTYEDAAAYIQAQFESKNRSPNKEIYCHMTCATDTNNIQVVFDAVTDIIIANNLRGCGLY

The molecules below were run against Guanine nucleotide-binding protein G(o) subunit alpha (Homo sapiens) (UniProt P09471) (assay: RGS7-Galphao binding modulators, primary screen, biochemical, multiplexed bead flow cytometry (AID 1439;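 note: fluorescent Galphao held in activated GDP-AlF4 state binding bead-coupled RGS7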)). Conditions: at 10 µM, actives lie on both sides.

| SMILES | binding response (% of control) |
| --- | --- |
| CCc1cc2c(SCC#N)ncnc2s1 | inconclusive: 92.3% |
| Cn1c(=O)c2c(nc(NCc3ccccc3)n2CC(N)=O)n(C)c1=O | inconclusive: 86.7% |
| O=C1N/C(=N\c2ccccn2)SC1Cc1ccccc1Cl (centres undefined) | inconclusive: 120% |
| O=C1NC(=S)N/C1=C\C=C\c1ccccc1 | inconclusive: 109% |
| CN(C)c1ccc2c3c(ccc(N(C)C)c13)C(=O)OC2 | inconclusive: 127% |
| Cc1nn(C)cc1/C=N/NC(=O)Cn1nccc1C | inactive: 98.8% |
| COc1ccc(NC(=O)COC(C)=O)cc1Cl | inactive: 103% |
| COc1ccc(NC(=O)CSc2nc(N)c3cc4c(nc3n2)CC(C)(C)OC4)cc1 | inconclusive: 113% |
| NS(=O)(=O)c1ccc(CCNC(=O)CNS(=O)(=O)c2cccc(Br)c2)cc1 | inconclusive: 102% |
| O=C(COc1cccnc1[N+](=O)[O-])Nc1cc(S(=O)(=O)N2CCCCC2)ccc1Cl | inconclusive: 119% |
| COCCN=c1scc(C)n1/N=C/C1CC2C=CC1C2 (centres undefined) | inconclusive: 77.2% |
| COC(=O)c1ccc(COc2ccc3c(c2)CCC3)o1 | inconclusive: 105% |
| CCCCCc1cc(=O)oc2c(C(CCN3CCCCC3)c3cc(OC)c(OC)c(OC)c3)c(OC)cc(OC)c12 (centres undefined) | inconclusive: 89.5% |
| COc1ccc(/C=N/n2nnnc2N)cc1OC | inconclusive: 65.9% |
| CCOc1ccc(C(=O)Nc2ccccc2N2CCCC2)cc1 | inactive: 117% |
| CCOc1ncccc1C(=O)N1CCN(S(=O)(=O)c2ccc3ccccc3c2)CC1 | inconclusive: 70.8% |
| Cn1c(SCC(=O)N/N=C/c2cc([N+](=O)[O-])ccc2O)nnc1-c1ccccc1 | inconclusive: 113% |
| CNC(=S)NNC(=O)c1c(C)nc2cc(C)ccn12 | inconclusive: 84.8% |
| Cc1ccnc(NS(=O)(=O)c2ccc3c(c2)CCO3)c1 | inconclusive: 131% |
| N#CCC(=O)Nc1ccc(C(F)(F)F)cc1N1CCOCC1 | inconclusive: 102% |
| CCOC(=O)c1c(-c2ccccc2)oc2ccc(OCC(=O)O)cc12 | inconclusive: 114% |
| CCN1CCN(c2cc(C)c3cc(NC(=S)N4CCCC4)ccc3n2)CC1 | inconclusive: 93.4% |
| NC(=S)N/N=C1\CC(c2ccc3c(c2)OCCCO3)Oc2ccc(F)cc21 (centres undefined) | inconclusive: 91.2% |
| Cc1ccc(Nc2ncnc3c2nnn3Cc2ccccc2)cc1 | inconclusive: 59.1% |

| SMILES | binding response (% of control) |
| --- | --- |
| Cc1ccc(NCC(=O)N/N=C/c2ccc(C(=O)O)cc2)cc1 | inconclusive: 127% |
| CCOC(=O)N1CCC(=NNC(=O)c2ccc(O)cc2)CC1 | inactive: 102% |
| COc1ccc(C(=O)/C=C/c2cn(CC(O)CN3CCN(C)CC3)c3ccccc23)cc1OC (centres undefined) | inconclusive: -218% |
| COC(=O)N/N=C/c1ccc(OC(=O)/C=C/c2ccco2)cc1 | inconclusive: 52.9% |
| CSc1ccc(/C=N/NC(=O)c2cccs2)cc1 | inconclusive: 110% |
| O=C(O)COc1c(F)c(F)c(C(F)(F)F)c(F)c1F | inactive: 99% |
| O=C(CN1CCCC1)Nc1cc(C(F)(F)F)ccc1Cl | inconclusive: 111% |
| CCN(Cc1ccccc1)C(=O)c1cc(COc2c(F)cccc2F)on1 | inconclusive: 88.9% |
| CC(C)(C)NC(=O)CSc1nc2ccc(NC(=O)CSc3nnc(N)s3)cc2s1 | inactive: 101% |
| CSc1nc(N2CCCC2)c2c(c1C#N)CC(C)(C)OC2 | inactive: 101% |
| Nc1nc(Nc2cccc(Cl)c2)nc(NCc2ccco2)c1[N+](=O)[O-] | inconclusive: 90.3% |
| CCc1nn(CC(=O)NCCCN(CC)CC)c(=O)c2cc3sc(C)cc3n12 | inconclusive: 103% |
| Cc1ccc(S(=O)(=O)N2CCCC(C(=O)Nc3ccc(C(=O)O)cc3)C2)cc1Cl (centres undefined) | inconclusive: 110% |
| O=C(NCC1CCS(=O)(=O)C1)Oc1ccccc1 (centres undefined) | inactive: 108% |
| CCOC(=O)CCCc1ccc(/C(C)=N/NC(=S)NC)cc1 | inconclusive: 91.2% |
| CC(=O)Nc1cccc(CP(=O)(c2ccccc2)c2ccccc2)c1 | inconclusive: 9.4% |
| O=c1[nH]cc(N(CCO)CCO)c(=O)[nH]1 | inconclusive: 107% |
| Cc1nc(-c2cccc(S(=O)(=O)N3CCCCC3)c2)cs1 | inconclusive: 39.6% |
| COC(=O)c1cnn(-c2ccccc2)c1C(OC)OC | inconclusive: -52.2% |
| CCOc1ccc(N/C(N)=N/c2nc(CSc3nnnn3-c3ccccc3)cc(=O)[nH]2)cc1 | inconclusive: 170% |
| Clc1ccc(-n2nnnc2-c2cnc3ccc(Cl)cc3c2-c2ccccc2)cc1 | inconclusive: 340% |
| Cn1cc(CCNCc2cn[nH]c2-c2ccc(-c3ccccc3)cc2)cn1 | inconclusive: 86.7% |
| O=C(O)C1CCCCC1C(=O)NCc1ccccn1 (centres undefined) | inconclusive: 112% |
| c1ccc(-c2csc(-n3cccn3)n2)cc1 | inactive: 104% |

| SMILES | binding response (% of control) |
| --- | --- |
| CCCOc1nc2ccccc2cc1/C=C/C(=O)O | inconclusive: 105% |
| CN1C[C@@H]2C(c3ccc(Cl)nc3)C3(c4ccc(C#N)cc4)CC2(C3)[C@H]1c1ccccc1 (some centres undefined) | inconclusive: 77.9% |
| Cc1ccc2c(C(=O)CCl)c(C)[nH]c2c1 | inconclusive: 101% |
| Nc1nn2cc(-c3ccc(Br)cc3)nc2c2ccccc12 | inconclusive: 117% |
| CCn1nc(C)c(Br)c1-c1nc(-c2ccc(C)cc2)no1 | inconclusive: 98% |
| CCOC(=O)C1(Cc2ccccc2)CCN(Cc2cc(OC)c3c(c2)OCO3)CC1 | inactive: 107% |
| CC1(C)CC(=O)C2=C(C1)Nc1ccccc1[S@]2=O | inconclusive: 184% |
| Nc1nc(-c2nonc2N)no1 | inconclusive: 71.4% |
| S=C1NC2=C(CCC/C2=C\c2ccc(Cl)cc2)C(c2ccc(Cl)cc2)N1 (centres undefined) | inconclusive: 84.2% |
| CN1CCN(c2nc(-c3ccccc3)nc(-c3ccc(F)cc3)c2C#N)CC1 | inconclusive: 80.1% |
| COc1ccc(CN2C(=O)CSC2c2ccncc2)cc1 (centres undefined) | inconclusive: 79.7% |
| COc1ccc(NC(=O)c2cc(S(=O)(=O)N3CCCC3)oc2C)cc1 | inconclusive: 121% |
| CSc1cccc(NC(=S)N2CCC(N(C)C3CCCC3)CC2)c1 | inactive: 99% |
| CC(C(=O)Nc1ccccc1)N(c1cccc(Cl)c1)S(C)(=O)=O (centres undefined) | inconclusive: 114% |
| COCCn1nnnc1CN1C2CCCC1CC(NC(C)=O)C2 (centres undefined) | inactive: 100% |
| O=C(C[n+]1ccccc1)Nc1ccc(Oc2ccccc2)cc1 | inactive: 98% |
| CC1=NN(c2ccccc2)C(=O)/C1=C/c1cn(C)c2ccccc12 | inconclusive: 98.3% |
| CCNc1nc(N)c(C(=O)C23CC4CC(CC(C4)C2)C3)s1 | inconclusive: 17.1% |
| COC(=O)[C@@H]1C[C@H]2CC[C@H](O)C[C@H]2N1Cc1ccc(N2CCN(C)CC2)cc1 | inconclusive: 100% |
| CCOC(=O)c1c(C)[nH]c(N=Nc2ccc(OC)cc2)c1C | inconclusive: 97.5% |
| CC(C)c1nc(SCC(=O)NC(=O)NC(C)(C)C)n[nH]1 | inconclusive: 77% |
| COC(=O)CSc1[nH]c2ccc(F)cc2c1[N+](=O)[O-] | inconclusive: 102% |
| CC(=O)c1sc2nsc(SCCN3CCCC3)c2c1N | inconclusive: 372% |
| Cc1ccc(/C=C/C(=O)O)cc1S(=O)(=O)N1CCC(Cc2ccccc2)CC1 | inconclusive: 99% |

25 neighbouring records already listed:

| SMILES | binding response (% of control) |
| --- | --- |
| Cn1cc(CCNCc2cn[nH]c2-c2ccc(-c3ccccc3)cc2)cn1 | inconclusive: 86.7% |
| O=C(O)C1CCCCC1C(=O)NCc1ccccn1 (centres undefined) | inconclusive: 112% |
| c1ccc(-c2csc(-n3cccn3)n2)cc1 | inactive: 104% |
| CCCOc1nc2ccccc2cc1/C=C/C(=O)O | inconclusive: 105% |
| CN1C[C@@H]2C(c3ccc(Cl)nc3)C3(c4ccc(C#N)cc4)CC2(C3)[C@H]1c1ccccc1 (some centres undefined) | inconclusive: 77.9% |
| Cc1ccc2c(C(=O)CCl)c(C)[nH]c2c1 | inconclusive: 101% |
| Nc1nn2cc(-c3ccc(Br)cc3)nc2c2ccccc12 | inconclusive: 117% |
| CCn1nc(C)c(Br)c1-c1nc(-c2ccc(C)cc2)no1 | inconclusive: 98% |
| CCOC(=O)C1(Cc2ccccc2)CCN(Cc2cc(OC)c3c(c2)OCO3)CC1 | inactive: 107% |
| CC1(C)CC(=O)C2=C(C1)Nc1ccccc1[S@]2=O | inconclusive: 184% |
| Nc1nc(-c2nonc2N)no1 | inconclusive: 71.4% |
| S=C1NC2=C(CCC/C2=C\c2ccc(Cl)cc2)C(c2ccc(Cl)cc2)N1 (centres undefined) | inconclusive: 84.2% |
| CN1CCN(c2nc(-c3ccccc3)nc(-c3ccc(F)cc3)c2C#N)CC1 | inconclusive: 80.1% |
| COc1ccc(CN2C(=O)CSC2c2ccncc2)cc1 (centres undefined) | inconclusive: 79.7% |
| COc1ccc(NC(=O)c2cc(S(=O)(=O)N3CCCC3)oc2C)cc1 | inconclusive: 121% |
| CSc1cccc(NC(=S)N2CCC(N(C)C3CCCC3)CC2)c1 | inactive: 99% |
| CC(C(=O)Nc1ccccc1)N(c1cccc(Cl)c1)S(C)(=O)=O (centres undefined) | inconclusive: 114% |
| COCCn1nnnc1CN1C2CCCC1CC(NC(C)=O)C2 (centres undefined) | inactive: 100% |
| O=C(C[n+]1ccccc1)Nc1ccc(Oc2ccccc2)cc1 | inactive: 98% |
| CC1=NN(c2ccccc2)C(=O)/C1=C/c1cn(C)c2ccccc12 | inconclusive: 98.3% |
| CCNc1nc(N)c(C(=O)C23CC4CC(CC(C4)C2)C3)s1 | inconclusive: 17.1% |
| COC(=O)[C@@H]1C[C@H]2CC[C@H](O)C[C@H]2N1Cc1ccc(N2CCN(C)CC2)cc1 | inconclusive: 100% |
| CCOC(=O)c1c(C)[nH]c(N=Nc2ccc(OC)cc2)c1C | inconclusive: 97.5% |
| CC(C)c1nc(SCC(=O)NC(=O)NC(C)(C)C)n[nH]1 | inconclusive: 77% |
| COC(=O)CSc1[nH]c2ccc(F)cc2c1[N+](=O)[O-] | inconclusive: 102% |

(list continues)

| SMILES | binding response (% of control) |
| --- | --- |
| COC(=O)NCC(c1ccco1)N1CCN(c2ccc(F)cc2)CC1 (centres undefined) | inactive: 102% |
| CN(NC1OC(=O)c2ccccc21)c1ccc(C(F)(F)F)cc1[N+](=O)[O-] (centres undefined) | inconclusive: 116% |
| CCCc1nc2ccc(NC(=O)NCCC(=O)OCC)cc2c(=O)n1Cc1ccc(Cl)cc1 | inactive: 85% |
| O=C(Nc1ccc(Cl)cc1)Nc1cccc2nsnc12 | inconclusive: 81.2% |
| O=C(Cn1ncc(N2CCOCC2)c(Cl)c1=O)c1ccc(Cl)cc1 | inconclusive: 78% |
| C[C@]12C[C@H](O)[C@@H]3c4ccc(O)cc4CCC3[C@@H]1CCC2=O (some centres undefined) | inconclusive: 87.3% |
| NC(=O)CC(NC(=O)Cc1ccc(Br)cc1)c1ccc(NCc2cc(F)ccc2F)c([N+](=O)[O-])c1 (centres undefined) | inconclusive: 80.8% |
| N#CC1(C#N)CC(C=O)=C(N)C1(C#N)CC(=O)C12CC3CC(CC(C3)C1)C2 (centres undefined) | inactive: 96.9% |
| O=C(NCc1nc2ccccc2[nH]1)C1=C[C@@H](c2csc3ccccc23)C[C@@H](OCCCCO)O1 | inconclusive: 119% |
| COc1ccc(NC(=O)Nc2nnc(-c3ccco3)s2)cc1 | inconclusive: 81.6% |
| Cc1ccc(S(=O)(=O)NCCOc2nc(N(C)C)nc(N(C)C)n2)cc1 | inconclusive: 81.7% |
| CCOC(=O)C1(CCOC)CCN(Cc2ccc3nonc3c2)CC1 | inconclusive: 98% |
| Cc1oc(-c2cccs2)nc1CS(=O)CC(=O)NCc1ccc2c(c1)OCO2 (centres undefined) | inconclusive: 83.5% |
| CCOC(=O)Cc1nnc(-c2ccccc2)o1 | inconclusive: 109% |
| Cc1[nH]n2cnnc2c(=O)c1Br | inconclusive: 10.4% |
| NC(=O)c1snnc1-c1ccccc1 | inconclusive: 110% |
| COc1ccc(C(=O)NNC(=O)CSc2nnc(C)n2C)cc1 | inactive: 102% |
| O=C(O)c1cccc(CSc2ncn[nH]2)c1 | inconclusive: 97.9% |
| Cc1nc2c(oc3ccc(Cl)cc32)c(=O)[nH]1 | inconclusive: 99.9% |
| COc1ccc2c(=O)cc(-c3cccnc3)oc2c1OC | inconclusive: 93.3% |
| O=C(COC(=O)c1cc2ccccc2cc1O)NC(=O)NCc1ccco1 | inconclusive: 94.6% |
| Oc1ccccc1N=Cc1c(O)ccc2ccccc12 | inconclusive: -54% |
